Experimental data reported in PubChem BioAssay AID1671190 (National Center for Advancing Translational Sciences (NCATS), 2021).
Values joined by “and” are separate entries in the source; they are usually repeats but may differ in a detail not shown here. Equal values may be shown once. Hit rate of the full screen: of about 580,000 compounds, about 6,100 (1.1%) were called active. The inconclusive results got no clear call from the source; some entries with a clear call stand among them for comparison. The call rests on the fitted dose curve; in most records, active means well fitted inhibition curve with a large enough effect; inconclusive means small, poorly fitted or top-dose-only effect, or another doubt; inactive means no such curve, though single readings can be large or run the other way. Potencies beside an inconclusive call are fits to weak or partial responses and may not hold up.

By UniProt entry, the sequences of proteins in these tests, tags left out. Where a name states a change or a piece, a line headed by the entry shows the natural chain unless it says otherwise.
UniProt P18054: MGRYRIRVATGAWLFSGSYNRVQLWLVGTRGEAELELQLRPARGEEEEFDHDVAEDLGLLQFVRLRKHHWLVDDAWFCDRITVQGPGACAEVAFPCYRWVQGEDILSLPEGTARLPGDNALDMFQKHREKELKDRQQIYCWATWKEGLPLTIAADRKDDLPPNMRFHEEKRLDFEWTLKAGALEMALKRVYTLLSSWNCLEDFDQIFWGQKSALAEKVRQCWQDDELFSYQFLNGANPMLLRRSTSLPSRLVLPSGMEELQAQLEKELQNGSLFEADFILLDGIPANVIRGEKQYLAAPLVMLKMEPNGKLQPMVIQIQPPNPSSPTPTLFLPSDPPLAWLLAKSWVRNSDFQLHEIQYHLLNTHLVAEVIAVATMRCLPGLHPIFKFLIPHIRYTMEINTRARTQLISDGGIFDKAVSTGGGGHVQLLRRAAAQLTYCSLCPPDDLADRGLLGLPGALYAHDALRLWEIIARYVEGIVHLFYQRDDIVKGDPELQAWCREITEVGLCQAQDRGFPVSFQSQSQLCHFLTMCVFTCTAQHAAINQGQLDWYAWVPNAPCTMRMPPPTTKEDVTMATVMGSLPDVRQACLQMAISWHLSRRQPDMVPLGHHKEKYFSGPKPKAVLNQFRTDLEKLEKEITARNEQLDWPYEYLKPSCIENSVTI

Molecular target: Polyunsaturated fatty acid lipoxygenase ALOX12 (Homo sapiens) (UniProt P18054)
Experiment: Primary qHTS assay for inhibitors of human arachidonate 12S-lipoxygenase (ALOX12): Round 2
Details: purified 12hLO, xylenol orange hydroperoxide absorbance; series mostly up to 108 µM
How it was run: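 Purified human 12hLO at 150 nM in 25 mM Hepes, 0.01% Triton X-100, pH 7.0, preincubated 15 min at room temperature with compound. Reaction started with 40 uM arachidonic acid, 30 min at room temperature. Hydroperoxide measured by Fe-xylenol orange, 573/405 nm absorbance ratio.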
Potency means the concentration at half of the fitted maximal effect.

| Structure (SMILES) | Potency |
| --- | --- |
| CCOC(=O)c1c(NC(=O)CSc2ncn[nH]2)sc(C(=O)N(C)C)c1C | inactive |
| CCCCN=CN1c2ccccc2-n2cccc2C1c1ccc(CC)cc1 (stereo unspecified) | inconclusive: 89.1 µM [inhibitor, single point] |
| COc1ccc(CC(=O)Nc2c(C(=O)N3CCN(c4ccccc4)CC3)oc3ccccc23)cc1OC | inactive |
| Cc1cccc2sc(NC(=O)C3CCN(C(=O)c4ccco4)CC3)nc12 | inconclusive: 17.8 µM [inhibitor, full curve, poor fit] |
| Clc1ccc(N/N=C/C(Br)=C/c2ccccc2)cc1 | inconclusive: 44.7 µM [inhibitor, partial curve, poor fit] |
| NC1(C(=O)O)CCC(c2ccccc2)CC1 (stereo unspecified) | inconclusive: 44.7 µM [inhibitor, partial curve, poor fit] |
| COc1ccc(-c2csc(Nc3ncccc3C)n2)cc1OC | inconclusive: 28.2 µM [inhibitor, partial curve, poor fit] and inconclusive: 44.7 µM [inhibitor, partial curve, poor fit] |
| O=C(O)/C(=C\c1cccs1)c1ccccc1 | inconclusive: 50.1 µM [inhibitor, single point] |
| O=C1C=C(O)CC(c2cccs2)C1 (stereo unspecified) | inconclusive: 44.7 µM [inhibitor, partial curve, poor fit] |
| CC1CN(C(=O)/C=C/c2ccc([N+](=O)[O-])s2)CC(C)O1 (stereo unspecified) | inactive |
| Cc1cccc(OCC(=O)N2CCC3(CC2)NC(=O)N(c2ccccc2Cl)N3)c1 | inconclusive: 2.24 µM [inhibitor, full curve] |
| Cc1ccnc(NCc2cccc3ccccc23)c1 | inconclusive: 89.1 µM [inhibitor, single point] |
| CC(NC(=O)C1(c2ccccc2)CC1)C12CC3CC(CC(C3)C1)C2 (stereo unspecified) | inactive |
| C[C@@H]1CN([C@H](C)CO)C(=O)c2cc(NC(=O)Nc3ccc(C(F)(F)F)cc3)ccc2O[C@H]1CN(C)S(=O)(=O)c1cccs1 | inconclusive: 89.1 µM [inhibitor, partial curve, poor fit] |
| O=C(c1ccc(F)cc1F)N(Cc1ccccn1)Cc1ccco1 | inconclusive: 11.2 µM [inhibitor, partial curve, poor fit] |
| CCOc1ccccc1NC(=O)C1CCN(S(=O)(=O)c2c(C)noc2/C=C/c2ccco2)CC1 | inconclusive: 89.1 µM [inhibitor, partial curve, poor fit] |
| Cc1ccc(OCCC(=O)OCC(=O)Nc2ccc3[nH]c(=O)[nH]c3c2)cc1 | inactive |
| O=C(NCc1ccccc1)C(=O)Nc1nccs1 | inconclusive: 50.1 µM [inhibitor, partial curve, poor fit] |
| CCN(CC)C(=O)c1ccc2c(=O)n(CCOC)c(=S)[nH]c2c1 | inconclusive: 14.1 µM [inhibitor, full curve, poor fit] |
| N#CC1=C(N)OC2=C(C(=O)CCC2)C1c1ccc(C#N)cc1 (stereo unspecified) | inactive |
| CN(Cc1ccc(C(=O)NCC(F)(F)F)cc1)C(=O)c1ccc(F)cc1 | inactive |
| OC(c1ccccc1)(c1ccccc1)C1CCN(CCCOc2ccc(-c3ccsc3)cc2)CC1 | inconclusive: 50.1 µM [inhibitor, partial curve, poor fit] |

Retrieved one by one from the entries so far (3):

| Structure (SMILES) | Potency |
| --- | --- |
| CCOc1ccccc1NC(=O)C1CCN(S(=O)(=O)c2c(C)noc2/C=C/c2ccco2)CC1 | inconclusive: 89.1 µM [inhibitor, partial curve, poor fit] |
| O=C(O)/C(=C\c1cccs1)c1ccccc1 | inconclusive: 50.1 µM [inhibitor, single point] |
| C[C@@H]1CN([C@H](C)CO)C(=O)c2cc(NC(=O)Nc3ccc(C(F)(F)F)cc3)ccc2O[C@H]1CN(C)S(=O)(=O)c1cccs1 | inconclusive: 89.1 µM [inhibitor, partial curve, poor fit] |

Further structures.

| Structure (SMILES) | Potency |
| --- | --- |
| CCCCc1[nH]nc2c1C1(C(=O)Nc3ccc(Cl)cc31)C(C#N)=C(N)O2 (stereo unspecified) | inconclusive: 31.6 µM [inhibitor, partial curve, poor fit] |
| O=C(NC(=S)NCCO)c1cn(-c2ccccc2)nc1-c1ccccc1 | active: 39.8 µM |
| COc1cccc(-c2nnc(SCc3ccc(C#N)cc3)n2Cc2ccco2)c1 | inconclusive: 28.2 µM [inhibitor, single point] |
| CN(C)C[C@@H]1CN(c2ccccn2)C[C@H]1NC(=O)c1ccsc1 | inactive |
| COc1cc(/C=C2\C(=O)N(CCC#N)N=C2C)ccc1OCC(=O)Nc1ccccc1 | inconclusive: 4.47 µM [inhibitor, full curve] |
| COc1ccc(NC(=S)NNC(=O)c2ccccc2OC(F)F)cc1 | inactive |
| CC1CCCN(CCCNC(=O)c2cc(Sc3ccc(F)cc3)nc3ccccc23)C1 (stereo unspecified) | inconclusive: 50.1 µM [inhibitor, partial curve, poor fit] |
| CCCn1c(N)c(C(c2ccc(OC)cc2)N2CCN(c3ccccc3)CC2)c(=O)[nH]c1=O (stereo unspecified) | inactive |
| Cn1c(=O)c2c(ncn2CC(=O)Nc2cccc([N+](=O)[O-])c2)n(C)c1=O | inactive |
| Cc1ccc(S(=O)(=O)Nc2cc3c4c(c2)CCN4C(=O)CC3)cc1 | inconclusive: 39.8 µM [inhibitor, partial curve, poor fit] |
| CN(C)C(=O)CSc1nnc(-c2cc(-c3cccs3)nc3ccccc23)o1 | inactive |
| CN(C)c1ccc(CNC(=O)c2ccc(Cn3c(SCc4ccccc4)nc4cccnc43)cc2)cc1 | inactive |
| CNc1cc(F)nc(F)n1 | inactive |
| Cc1ccc(S(=O)(=O)NNC(=O)c2cc3cc4ccccc4nc3s2)cc1 | inconclusive: 50.1 µM [inhibitor, partial curve, poor fit] |
| CCC1([N+](=O)[O-])COC(c2ccc(Cl)cc2)OC1 (stereo unspecified) | inconclusive: 63.1 µM [inhibitor, partial curve, poor fit] |
| COc1cccc(CN(C)C(=O)c2ccc(S(=O)(=O)N3CCCC3)cc2)c1OC | inactive |
| COc1ccc(-n2c(=O)c(-c3cccs3)nc3cnc(N4CCN(C)CC4)nc32)cc1 | inconclusive: 39.8 µM [inhibitor, partial curve, poor fit] |
| CCc1c(C2(O)CCCCC2)[nH]c2ccc(C(F)(F)F)cc12 | inconclusive: 50.1 µM [inhibitor, partial curve, poor fit] |
| Cc1ccc(Cl)cc1NC(=O)C1CCN(c2nnc(C)c3c(C)n(-c4ccccc4)nc23)CC1 | inactive |
| CNCCCCOc1ccccc1-c1ccccc1 | inconclusive: 2 µM [inhibitor, full curve] |
| CCOC(=O)c1c(N)ssc1=S | inconclusive: 4.47 µM [inhibitor, full curve, poor fit] |
| Oc1[nH]c2ccc(Br)cc2c1N=NC(=S)N1CCOCC1 | active: 39.8 µM |

| Structure (SMILES) | Potency |
| --- | --- |
| S=C(NCc1ccc(Cl)cc1)NC12CC3CC(CC(C3)C1)C2 | inconclusive: 25.1 µM [inhibitor, partial curve, poor fit] |
| COc1ccc(CN2CCC3CC2c2cc(-c4cccc(C)c4)ccc23)cc1 (stereo unspecified) | inactive |
| Cc1ccc(S(=O)(=O)Nc2cc(Cl)c(O)cc2C)cc1 | inconclusive: 39.8 µM [inhibitor, partial curve, poor fit] |
| COc1ccc(S(=O)(=O)NNC(=O)c2cc3cc4ccccc4nc3s2)cc1 | inconclusive: 35.5 µM [inhibitor, partial curve] |
| N#Cc1ccccc1OCc1cn(CC(=O)c2ccc(O)cc2)nn1 | inconclusive: 0.447 µM [inhibitor, full curve, poor fit] |
| O=C(O)c1cccc(-n2c(/C=C/c3ccccc3)nc3ccccc3c2=O)c1 | inconclusive: 79.4 µM [inhibitor, partial curve, poor fit] |
| Cc1cc(C)c(Cn2c3ccccc3c3cnn(CC(=O)NCc4cccs4)c(=O)c32)c(C)c1 | inconclusive: 112 µM [inhibitor, single point] |
| Cc1c(O)c(=O)n(-c2ccccc2)n1C | inconclusive: 44.7 µM [inhibitor, partial curve, poor fit] |
| COc1ccc(C2CC(c3cccc(Br)c3)=NN2c2ccc(S(N)(=O)=O)cc2)cc1 (stereo unspecified) | inconclusive: 5.62 µM [inhibitor, full curve, poor fit] |
| S=C(Nc1ccc(Cl)c(Cl)c1)N1CCOCC1 | inactive |
| O=C(NC(=S)Nc1nc(-c2ccc([N+](=O)[O-])cc2)cs1)c1ccco1 | inconclusive: 44.7 µM [inhibitor, partial curve, poor fit] |
| Cc1cc(Cl)ccc1NC(=S)NCc1ccco1 | inconclusive: 141 µM [inhibitor, partial curve, poor fit] |
| CCn1nnnc1SCC(=O)Nc1cccc(NC(C)=O)c1 | inconclusive: 0.501 µM [inhibitor, full curve, poor fit] |
| CCCCc1ccc(-n2nnnc2SCC(=O)Nc2ccc(NC(C)=O)cc2)cc1 | inactive |
| O=C(Nc1ccc(S(=O)(=O)NC2=NCCCCC2)cc1)c1ccc2ccccc2n1 | inactive |
| COc1cccc(NC(=O)Cn2c(-c3ccccc3)nc(C)c(CCO)c2=O)c1 | inactive |
| CCOP(=O)(OCC)/C(=C/N1CCCCC1)NC(=O)c1ccccc1 | inconclusive: 50.1 µM [inhibitor, partial curve, poor fit] |
| Cc1cccc(-c2cc(=O)c(C(=O)O)cn2-c2ccc(F)cc2F)c1 | inconclusive: 1 µM [inhibitor, full curve] |
| Cc1cc(F)ccc1S(=O)(=O)NCC(c1cccnc1)N1CCc2ccccc21 (stereo unspecified) | inconclusive: 70.8 µM [inhibitor, partial curve, poor fit] |
| CN(C)CCO/N=C(\c1ccc(Br)cc1)c1cccnc1 | inconclusive: 0.355 µM [inhibitor, full curve, poor fit] |
| CC(=O)Nc1ccc(Sc2ncccc2C(=O)Nc2cc(Cl)cc(Cl)c2)cn1 | inconclusive: 35.5 µM [inhibitor, partial curve, poor fit] |
| NC(=O)CCn1c(C(=O)c2cc(Cl)c(N)c(Cl)c2)c2ccccc2[n+]1[O-] | inconclusive: 70.8 µM [inhibitor, partial curve, poor fit] |
